PubChem BioAssay AID1224827 – NIAID, 2016

Screen: 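Retest primary hits on a TNF reporter with six siRNAs per gene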 (follow-up of hits)
Cells: RAW264.7 G9 mouse macrophage reporter clone
Reagent: single siRNA against mouse genes, 100 nM siRNA
Duration: siRNA for 2 days, then LPS about 16 h
Conditions: bacterial lipopolysaccharide (LPS), 10 ng/ml, cells fixed after overnight (about 16 h) stimulation
Measured: 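Imaged nuclear TNF reporter intensity, background removed, scaled per plate and to non-targeting control wells, as z-scores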
Scale: TNF reporter z-score, mean and TNF reporter z-score: higher = stronger Tnf promoter reporter signal; gene median z, three same-vendor siRNAs: higher = stronger Tnf reporter signal for the gene
Rule for the call: 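An siRNA is called active when its mean z-score over replicates is at least +2 or at most -2; control wells get no call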
Shown is a random part of about 3,800 reagents tested. About 2,200 of them (57%) count as active. 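Active means a strong reporter change in either direction; calls are per siRNA, not per gene; qiagen siRNAs gave weaker effects.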

| Target gene | PubChem SID | TNF reporter z-score, mean | gene median z, three same-vendor siRNAs | TNF reporter z-score, repeat 1 | TNF reporter z-score, repeat 2 | Outcome |
| --- | --- | --- | --- | --- | --- | --- |
| Optn | SID315486645 | 3.15 | 0.791 | 2.87 | 3.44 | active |
| Optn | SID315486646 | 0.953 | 0.791 | -1.4 | 3.3 | inactive |
| Optn | SID315486647 | -1.56 | 0.791 | -1.29 | -1.84 | inactive |
| Optn | SID315486648 | 1.45 | 0.168 | 2.87 | 0.0312 | inactive |
| Optn | SID315486649 | 0.445 | 0.168 | 0.305 | 0.585 | inactive |
| Optn | SID315486650 | -0.827 | 0.168 | -0.299 | -1.36 | inactive |
| Epo | SID315484110 | 0.751 | -2.96 | -0.349 | 1.85 | inactive |
| Epo | SID315484111 | -2.96 | -2.96 | -2.63 | -3.29 | active |
| Epo | SID315484112 | -4.37 | -2.96 | -4.85 | -3.89 | active |
| Epo | SID315484113 | 1.14 | -1.41 | 2.28 | -0.000609 | inactive |
| Epo | SID315484114 | -1.58 | -1.41 | -1.41 | -1.74 | inactive |
| Epo | SID315484115 | -1.79 | -1.41 | -2.17 | -1.41 | inactive |
| Pakap | SID315483696 | -0.323 | -0.623 | -0.365 | -0.28 | inactive |
| Pakap | SID315483697 | -0.759 | -0.623 | -0.618 | -0.899 | inactive |
| Pakap | SID315483698 | -1.13 | -0.623 | -1.64 | -0.627 | inactive |
| Pakap | SID315483699 | 0.197 | -2.34 | 0.0369 | 0.356 | inactive |
| Pakap | SID315483700 | -2.68 | -2.34 | -3.94 | -1.41 | active |
| Pakap | SID315483701 | -3.27 | -2.34 | -3.28 | -3.26 | active |
| Ctcf | SID315484017 | -0.357 | -1.13 | -1.07 | 0.355 | inactive |
| Ctcf | SID315484018 | -0.996 | -1.13 | -1.19 | -0.803 | inactive |
| Ctcf | SID315484019 | -4.52 | -1.13 | -4.98 | -4.07 | active |
| Ctcf | SID315484020 | 1.04 | -1.77 | 3.72 | -1.65 | inactive |
| Ctcf | SID315484021 | 0.377 | -1.77 | 2.64 | -1.89 | inactive |
| Ctcf | SID315484022 | -3.6 | -1.77 | -3.96 | -3.23 | active |

Individual results from the entries so far:
Value of Pakap [SID315483696] under “TNF reporter z-score, repeat 1”: -0.365
Result of Optn [SID315486645] in “gene median z, three same-vendor siRNAs”: 0.791
Under “TNF reporter z-score, repeat 2”, Optn [SID315486650] is entered as -1.36

The listing continues.
| Target gene | PubChem SID | TNF reporter z-score, mean | gene median z, three same-vendor siRNAs | TNF reporter z-score, repeat 1 | TNF reporter z-score, repeat 2 | Outcome |
| --- | --- | --- | --- | --- | --- | --- |
| Ctf1 | SID315484023 | -1.6 | -2.82 | -1.95 | -1.26 | inactive |
| Ctf1 | SID315484024 | -2.82 | -2.82 | -2.99 | -2.64 | active |
| Ctf1 | SID315484025 | -4.74 | -2.82 | -4.64 | -4.84 | active |
| Ctf1 | SID315484026 | 4.59 | -3.24 | 7.45 | 1.73 | active |
| Ctf1 | SID315484027 | -3.72 | -3.24 | -4.22 | -3.22 | active |
| Ctf1 | SID315484028 | -3.72 | -3.24 | -4.19 | -3.25 | active |
| Nanp | SID315486462 | 3.58 | -3.37 | 4 | 3.17 | active |
| Nanp | SID315486463 | -3.37 | -3.37 | -2.98 | -3.75 | active |
| Nanp | SID315486464 | -4.23 | -3.37 | -4.22 | -4.24 | active |
| Nanp | SID315486465 | 2.32 | -1.03 | 4.51 | 0.128 | active |
| Nanp | SID315486466 | -1 | -1.03 | 0.186 | -2.19 | inactive |
| Nanp | SID315486467 | -3.53 | -1.03 | -3.1 | -3.95 | active |
| Il24 | SID315487305 | -0.362 | -1.98 | -1.83 | 1.11 | inactive |
| Il24 | SID315487306 | -1.51 | -1.98 | -0.903 | -2.13 | inactive |
| Il24 | SID315487307 | -4.02 | -1.98 | -5.32 | -2.72 | active |
| Il24 | SID315487308 | 2.16 | -0.594 | 4.56 | -0.238 | active |
| Il24 | SID315487309 | 0.634 | -0.594 | 2.22 | -0.95 | inactive |
| Il24 | SID315487310 | -2.33 | -0.594 | -2.71 | -1.94 | active |
| Nr2f2 | SID315483747 | 6.49 | 0.794 | 9.7 | 3.29 | active |
| Nr2f2 | SID315483748 | 1.34 | 0.794 | 4.91 | -2.22 | inactive |
| Nr2f2 | SID315483749 | -2.25 | 0.794 | -2.8 | -1.7 | active |
| Nr2f2 | SID315483750 | 2.14 | -0.768 | 3.58 | 0.711 | active |
| Nr2f2 | SID315483751 | -1.19 | -0.768 | -0.92 | -1.45 | inactive |
| Nr2f2 | SID315483752 | -1.59 | -0.768 | -0.615 | -2.57 | inactive |
| Slco2b1 | SID315487425 | 11.8 | 3.8 | 9.84 | 13.8 | active |
| Slco2b1 | SID315487426 | 2.66 | 3.8 | 1.93 | 3.38 | active |
| Slco2b1 | SID315487427 | 2.14 | 3.8 | 0.0593 | 4.22 | active |
| Slco2b1 | SID315487428 | 2.67 | 0.888 | 4.13 | 1.21 | active |
| Slco2b1 | SID315487429 | 1.33 | 0.888 | 2.1 | 0.566 | inactive |
| Slco2b1 | SID315487430 | -1.61 | 0.888 | -2.2 | -1.03 | inactive |
| Ctif | SID315488787 | 2.6 | -3.3 | 0.785 | 4.41 | active |
| Ctif | SID315488788 | -3.3 | -3.3 | -3.08 | -3.53 | active |
| Ctif | SID315488789 | -4.14 | -3.3 | -4.04 | -4.24 | active |
| Ctif | SID315488790 | 3.83 | -0.426 | 5.27 | 2.39 | active |
| Ctif | SID315488791 | -0.652 | -0.426 | -0.374 | -0.93 | inactive |
| Ctif | SID315488792 | -0.865 | -0.426 | -1.25 | -0.478 | inactive |
